Assay [1] has as its target zDHHC5-BirA (BirA fused at the intracellular C terminus of zDHHC5) (UniProt Q8VDZ4). The assay is described as follows: proximity labelling; BirA-zDHHC5 and zDHHC5-BirA in the cardiomyoblast cell line H9c2, proximity biotinylation.
The target of assay [2] is BirA-zDHHC5 (BirA fused at the intracellular N terminus of zDHHC5) (UniProt Q8VDZ4). Described as above.
Assay [3] has as its target zDHHC5-BirA (BirA fused at the intracellular C terminus of zDHHC5) (UniProt Q8VDZ4). The assay is described as follows: proximity labelling; BirA fusions of zDHHC5 (or BirA alone) in HEK cells, 50 μM biotin overnight, streptavidin Sepharose, LC-MS/MS.
In assay [4] the target is BirA-zDHHC5 (BirA fused at the intracellular N terminus of zDHHC5) (UniProt Q8VDZ4). The description is as above.

Sequences of proteins named here, by UniProt entry; tags and fusion partners are left off.
UniProt Q8VDZ4: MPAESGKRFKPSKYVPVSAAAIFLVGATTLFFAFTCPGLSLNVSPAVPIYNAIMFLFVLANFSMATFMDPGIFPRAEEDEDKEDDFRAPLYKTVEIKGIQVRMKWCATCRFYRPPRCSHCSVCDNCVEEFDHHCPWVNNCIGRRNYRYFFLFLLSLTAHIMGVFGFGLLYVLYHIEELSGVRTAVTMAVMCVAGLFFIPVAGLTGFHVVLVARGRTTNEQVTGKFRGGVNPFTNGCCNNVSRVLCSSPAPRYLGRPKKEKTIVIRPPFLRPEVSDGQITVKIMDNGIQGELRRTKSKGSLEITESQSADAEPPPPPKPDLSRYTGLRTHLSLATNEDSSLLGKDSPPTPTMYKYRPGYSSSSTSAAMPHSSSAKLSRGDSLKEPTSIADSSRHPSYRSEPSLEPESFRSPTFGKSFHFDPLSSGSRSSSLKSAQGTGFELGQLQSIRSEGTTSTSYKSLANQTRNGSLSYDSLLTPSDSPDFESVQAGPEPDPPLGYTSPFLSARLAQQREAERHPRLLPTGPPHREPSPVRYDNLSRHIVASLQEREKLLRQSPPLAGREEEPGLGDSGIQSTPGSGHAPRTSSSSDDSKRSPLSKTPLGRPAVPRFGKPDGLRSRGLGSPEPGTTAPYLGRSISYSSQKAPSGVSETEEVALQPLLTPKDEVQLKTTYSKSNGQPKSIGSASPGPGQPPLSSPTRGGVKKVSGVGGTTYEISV

No constants are given. Whether binding was seen depends on the method and setting. In cells and extracts the contact can be indirect. Here binding means that the protein was enriched with, or labelled near, the bait; the list need not be complete.

B1: O-GlcNAc transferase (OGT), endogenous, H9c2 cells (enzyme, UniProt P56558 1-1036)
chain: MASSVGNVADSTGLAELAHREYQAGDFEAAERHCMQLWRQEPDNTGVLLLLSSIHFQCRRLDRSAHFSTLAIKQNPLLAEAYSNLGNVYKERGQLQEAIEHYRHALRLKPDFIDGYINLAAALVAAGDMEGAVQAYVSALQYNPDLYCVRSDLGNLLKALGRLEEAKACYLKAIETQPNFAVAWSNLGCVFNAQGEIWLAIHHFEKAVTLDPNFLDAYINLGNVLKEARIFDRAVAAYLRALSLSPNHAVVHGNLACVYYEQGLIDLAIDTYRRAIELQPHFPDAYCNLANALKEKGSVAEAEDCYNTALRLCPTHADSLNNLANIKREQGNIEEAVRLYRKALEVFPEFAAAHSNLASVLQQQGKLQEALMHYKEAIRISPTFADAYSNMGNTLKEMQDVQGALQCYTRAIQINPAFADAHSNLASIHKDSGNIPEAIASYRTALKLKPDFPDAYCNLAHCLQIVCDWTDYDERMKKLVSIVAEQLEKNRLPSVHPHHSMLYPLSHGFRKAIAERHGNLCLDKINVLHKPPYEHPKDLKLSDGRLRVGYVSSDFGNHPTSHLMQSIPGMHNPDKFEVFCYALSPDDGTNFRVKVMAEANHFIDLSQIPCNGKAADRIHQDGIHILVNMNGYTKGARNELFALRPAPIQAMWLGYPGTSGALFMDYIITDQETSPAEVAEQYSEKLAYMPHTFFIGDHANMFPHLKKKAVIDFKSNGHIYDNRIVLNGIDLKAFLDSLPDVKIVKMKCPDGGDNADTTNTALNMPVIPMNTIAEAVIEMINRGQIQITINGFSISNGLATTQINNKAATGEEVPRTIIVTTRSQYGLPEDAIVYCNFNQLYKIDPSTLQMGANILKRVPNSVLWLLRFPAVGEPNIQQYAQNMGLPQNRIIFSPVAPKEEHVRRGQLADVCLDTPLCNGHTTGMDVLWAGTPMVTMPGETLASRVAASQLTCLGCLELIAKSRQEYEDIAVKLGTDLEYLKKIRGKVWKQRISSPLFNTKQYTMELERLYLQMWEHYAAGNKPDHMIKPVEVTESA
For the molecule B1, the binding entry in assay [1] and in assay [2] was “binds” in each case.

B2: zDHHC20 (endogenous, HEK cells) (enzyme, UniProt Q5W0Z9 1-365)
chain: MAPWTLWRCCQRVVGWVPVLFITFVVVWSYYAYVVELCVFTIFGNEENGKTVVYLVAFHLFFVMFVWSYWMTIFTSPASPSKEFYLSNSEKERYEKEFSQERQQEILRRAARALPIYTTSASKTIRYCEKCQLIKPDRAHHCSACDSCILKMDHHCPWVNNCVGFSNYKFFLLFLLYSLLYCLFVAATVLEYFIKFWTNELTDTRAKFHVLFLFFVSAMFFISVLSLFSYHCWLVGKNRTTIESFRAPTFSYGPDGNGFSLGCSKNWRQVFGDEKKYWLLPIFSSLGDGCSFPTRLVGMDPEQASVTNQNEYARSSGSNQPFPIKPLSESKNRLLDSESQWLENGAEEGIVKSGTNNHVTVAIEN
Take B2: the binding entry in assay [3] and in assay [4] was “binds” each time.

The values above are taken from paper PMC7395175.
